Source: publication PMC7819943, “Rice protein-binding microarrays: a tool to detect cis-acting elements near promoter regions in rice”
The list shows a part of the results.

Chains of the proteins cited; added tags and fusions are not shown.
UniProt Q0JBA9, entry or part of it: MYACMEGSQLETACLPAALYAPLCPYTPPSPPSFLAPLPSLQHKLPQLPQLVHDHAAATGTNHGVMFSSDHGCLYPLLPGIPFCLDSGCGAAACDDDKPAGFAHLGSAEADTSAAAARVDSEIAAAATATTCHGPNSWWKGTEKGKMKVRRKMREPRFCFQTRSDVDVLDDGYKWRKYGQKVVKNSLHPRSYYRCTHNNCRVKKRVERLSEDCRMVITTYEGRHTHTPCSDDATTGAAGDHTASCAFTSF

What follows are sequences tested against OsWRKY34 (Oryza sativa, UniProt Q0JBA9 1-250) (assay: protein-binding microarray (RPBM); PBS, 2% BSA, 51.3 ng/ul salmon testes DNA, 50 uM zinc acetate, 200 nM TF, 25 C, 1 h; high values mean tight binding). Settings: protein: recombinant; tags: N-terminal polyhistidine and DsRed monomer fusion (pET32a); label: CyDye5-dUTP incorporated in the synthesized complementary strand; 3' TTTTT single-stranded linker to array surface; dsDNA, one strand shown.
Procedure, shortened: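 The binding signal is fluorescence intensity per feature, in arbitrary units, read on an Axon 4000B scanner. Polyhistidine- and DsRed-tagged transcription factors (N-terminal fusions) from E. coli BL21-CodonPlus were purified on Ni–NTA and applied at 200 nM for 1 h at 25 °C to a double-stranded, BSA-blocked custom Agilent array in buffer with 50 µM zinc acetate.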

| Sequence | binding signal |
| --- | --- |
| CTTGTTTTTATTTTGGCACTGCTTACAGTCTTACACTAATCGGAGTCACCTAGTGCAG | 10500 fluorescence intensity (a.u.) |
| CATCCATTTTCTTGCTACAGTTATTAAGCGCATATCACCTCGGAGTCACCTAGTGCAG | 9630 fluorescence intensity (a.u.) |
| TTCAGTTGGTCCAAATATCCTTTTATGTGACTTTCAATGACGGAGTCACCTAGTGCAG | 8030 fluorescence intensity (a.u.) |
| TATAGTCCACTAAGTTCAACATGCTACCACGCCACATCATCGGAGTCACCTAGTGCAG | 8400 fluorescence intensity (a.u.) |
| TAGTTTGCCTGCCATCATTTCTCTCTTAGCGACACCTTATCGGAGTCACCTAGTGCAG | 8400 fluorescence intensity (a.u.) |
| AGTTGCTTATTTGGCCTGTTTTAGACTCTAAGACTATGTTCGGAGTCACCTAGTGCAG | 8290 fluorescence intensity (a.u.) |
| ATTTATGTTTTGGGCCTTTTCATCGTAATTTGTTTTTCAGCGGAGTCACCTAGTGCAG | 9450 fluorescence intensity (a.u.) |
| TGCCGTCGGCCCCACCTGTCATCACCTACCCCTGGTCGACCGGAGTCACCTAGTGCAG | 8990 fluorescence intensity (a.u.) |
| TTTTAACGTGGTTCCTTTTTCTGCATTGACTTTTAAGTCACGGAGTCACCTAGTGCAG | 10100 fluorescence intensity (a.u.) |
| CCGTCGCTGCAGCTTTACTCTGGCCCGATTTCCCGCATAACGGAGTCACCTAGTGCAG | 11000 fluorescence intensity (a.u.) |
| CTTTTCAACTTATATCGCTCCTGTTCTCATTTTACTATTTCGGAGTCACCTAGTGCAG | 11700 fluorescence intensity (a.u.) |
| CTCCCTCCTCGCTTGCACTCGCTGCTCTCTCTCTCTCTCTCGGAGTCACCTAGTGCAG | 8930 fluorescence intensity (a.u.) |
| AACTTTGGTCTCATGCAAAATTTTCACATCGTACACTCCTCGGAGTCACCTAGTGCAG | 9430 fluorescence intensity (a.u.) |
| AACCGGCCAACCGCCCCAGATATGGCCTCTCGCGCGCGCGCGGAGTCACCTAGTGCAG | 9930 fluorescence intensity (a.u.) |
| GTACTCTCTCTCTCTCTCTGTGTTGATAACCCCAATACAACGGAGTCACCTAGTGCAG | 8130 fluorescence intensity (a.u.) |
| ATAGGTAGATTGTTGGTGATGCTCTAAGGGTGGGTTTTGACGGAGTCACCTAGTGCAG | 13400 fluorescence intensity (a.u.) |
| GCCCCTTGCTGTCCACTGCCTGAGAAGCCGAGACCACTACCGGAGTCACCTAGTGCAG | 8690 fluorescence intensity (a.u.) |
| CCACTCACAGGCTCAACTCAACTCCACCCGAATCCGCAAGCGGAGTCACCTAGTGCAG | 8320 fluorescence intensity (a.u.) |
| CACTCACCGACCCGCCGCCGTCTCTCCCTCGTGTTCTCCGCGGAGTCACCTAGTGCAG | 8900 fluorescence intensity (a.u.) |
| TTCATACTATCGGTCTCATCTTTTTGCTTATACTTATACTCGGAGTCACCTAGTGCAG | 8380 fluorescence intensity (a.u.) |
| TTCCACGCCCTCTTAAGTGGTTCCCGCACACATGATGTCCCGGAGTCACCTAGTGCAG | 8830 fluorescence intensity (a.u.) |
| GGTGCTCACGCTGGTCGCCTTTGTTCTACAGCTCGAAATACGGAGTCACCTAGTGCAG | 8690 fluorescence intensity (a.u.) |
| ATCTAACATTTCGCGGTTGCATTACCATCTCTTGCCTCTTCGGAGTCACCTAGTGCAG | 16300 fluorescence intensity (a.u.) |
| TTGTCTGTTGGCTTCTTTTGGGCTAATCTCCCTATGCACACGGAGTCACCTAGTGCAG | 9370 fluorescence intensity (a.u.) |
| CAACTGCTACTAGTACTATCTCCTCCCGTCTCGTGCTCTTCGGAGTCACCTAGTGCAG | 8320 fluorescence intensity (a.u.) |
| TTGTAGCAAAATGTTTTATGAGGTGATTTTGTTGTGTTTCCGGAGTCACCTAGTGCAG | 8380 fluorescence intensity (a.u.) |
| GATATGACATTTCTACCCCTCATTGATATGCATTATATTTCGGAGTCACCTAGTGCAG | 9720 fluorescence intensity (a.u.) |

| Sequence | binding signal |
| --- | --- |
| GGGAGGGGCGGCCCAGCGGCAGCGGAGGGGAGGGAGGATGCGGAGTCACCTAGTGCAG | 8640 fluorescence intensity (a.u.) |
| GCTGGATTTTATTTTCTGTTGTTACTACTATATATGCTTACGGAGTCACCTAGTGCAG | 11300 fluorescence intensity (a.u.) |
| GGTTGCCGCGTTGTCCTCTGTCTCTACACGGACACAATGTCGGAGTCACCTAGTGCAG | 8490 fluorescence intensity (a.u.) |
| CGTGGTGCTCGCGTCCCTTCTCCTCGTCGTCTCCGGCGAACGGAGTCACCTAGTGCAG | 10400 fluorescence intensity (a.u.) |
| ATCTATTTGAGTTTAATTTTTGTATGGTTGGTTATTGTGTCGGAGTCACCTAGTGCAG | 8700 fluorescence intensity (a.u.) |
| ACTTCTGCGCCGTCGCTTTTATGGTTTTATGTAATGTTGTCGGAGTCACCTAGTGCAG | 8100 fluorescence intensity (a.u.) |
| TAGCTTCTCGTCGACGCTTTTGCCTCCGTCTATATAAGACCGGAGTCACCTAGTGCAG | 9530 fluorescence intensity (a.u.) |
| GTGGATTTTTTCGTGTGTTCTTCAAAATGTTCCTAGTCAACGGAGTCACCTAGTGCAG | 8200 fluorescence intensity (a.u.) |
| TCAGTTTTTCTTCTACTATATTCGATGCATCTTGTTATGTCGGAGTCACCTAGTGCAG | 9320 fluorescence intensity (a.u.) |
| TCACGTTTTTAATTATTCCGGACATTCTAAACCACGTTTACGGAGTCACCTAGTGCAG | 9180 fluorescence intensity (a.u.) |
| TTTGTGTTTCTTCTTTAGCGACGGTGTGTTTATCCGTCTTCGGAGTCACCTAGTGCAG | 9550 fluorescence intensity (a.u.) |
| AACAACAACGTCCCGCCGCATCTCCTGCTCCGGCGCCGGCCGGAGTCACCTAGTGCAG | 11100 fluorescence intensity (a.u.) |
| TCCTTTTGTTGTTCGAACTTACTCTCTCATCATCTTTGGTCGGAGTCACCTAGTGCAG | 8700 fluorescence intensity (a.u.) |
| GGTATATTTGGAATAAGTTTCTTTTTACCCTGTTTATATACGGAGTCACCTAGTGCAG | 8640 fluorescence intensity (a.u.) |
| GGAGATCCTCCGGGCTTTTGGGTTGGTTTCTTTCGTTGGACGGAGTCACCTAGTGCAG | 12600 fluorescence intensity (a.u.) |
| ATAACTATTTAATCCCTTGGCTATGTTATTTTGGCAGCAGCGGAGTCACCTAGTGCAG | 8490 fluorescence intensity (a.u.) |
| CACAGTACTAACATTTTCCATTGCTTATAATTTGCAGATGCGGAGTCACCTAGTGCAG | 8450 fluorescence intensity (a.u.) |
| AATTTGGTGGGGTCGGGGTGGGTGCTTTAACTGGGGAGATCGGAGTCACCTAGTGCAG | 24500 fluorescence intensity (a.u.) |
| ACTACACACGCAACACTACACTTTATCAAACTTTTTTTTGCGGAGTCACCTAGTGCAG | 10600 fluorescence intensity (a.u.) |
| CCCGCCGCGTCAGTTCCGCGTCCCCGCAGGCCGCAGCCAACGGAGTCACCTAGTGCAG | 8270 fluorescence intensity (a.u.) |
| TATACATCACTGTGTTCATTATGAGCTTGGCTATGCAATACGGAGTCACCTAGTGCAG | 8560 fluorescence intensity (a.u.) |
| GAGGAGGTGGGGAGGCGGCCATTCCCATGGCGCGTGGACGCGGAGTCACCTAGTGCAG | 8310 fluorescence intensity (a.u.) |
| TCATCATCCTGACTGACCACCACAGTCTTGTTCATTTGTCCGGAGTCACCTAGTGCAG | 8660 fluorescence intensity (a.u.) |
| ATGTTTCCAATAGGCTTTATCTCTTACTTATTTTTTTATGCGGAGTCACCTAGTGCAG | 8630 fluorescence intensity (a.u.) |
| CTTGTTCATATTTTTTCAATTTTTTTCATAGTTATTTAGACGGAGTCACCTAGTGCAG | 9310 fluorescence intensity (a.u.) |
| TCCAACCCTTTAATACTTCCCCGTTTCATTTCATTATAGCCGGAGTCACCTAGTGCAG | 10300 fluorescence intensity (a.u.) |
| ACCTTACCTTACCTTACTGGGGAGGGGACCTTCTTAATTACGGAGTCACCTAGTGCAG | 15800 fluorescence intensity (a.u.) |

Rewritten with tabs: part of the list above
Sequence	binding signal
TATACATCACTGTGTTCATTATGAGCTTGGCTATGCAATACGGAGTCACCTAGTGCAG	8560 fluorescence intensity (a.u.)
GAGGAGGTGGGGAGGCGGCCATTCCCATGGCGCGTGGACGCGGAGTCACCTAGTGCAG	8310 fluorescence intensity (a.u.)
TCATCATCCTGACTGACCACCACAGTCTTGTTCATTTGTCCGGAGTCACCTAGTGCAG	8660 fluorescence intensity (a.u.)
